We go through five substances from US20130225493A1.

Sequences of proteins named here, by UniProt entry; tags and fusion partners are left off. A change or cut given only in a name is not applied to a line headed by its entry.
UniProt O76093: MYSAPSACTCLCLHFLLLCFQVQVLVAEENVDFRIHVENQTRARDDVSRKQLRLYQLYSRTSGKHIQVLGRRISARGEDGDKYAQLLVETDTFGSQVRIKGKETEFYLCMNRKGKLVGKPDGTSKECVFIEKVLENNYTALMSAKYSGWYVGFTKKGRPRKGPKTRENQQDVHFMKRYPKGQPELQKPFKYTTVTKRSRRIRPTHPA

For assay [1], the target named is T1, FGFR4 extracellular domain, immobilized (R4-Fc) (UniProt P22455).
T1 sequence (looked up): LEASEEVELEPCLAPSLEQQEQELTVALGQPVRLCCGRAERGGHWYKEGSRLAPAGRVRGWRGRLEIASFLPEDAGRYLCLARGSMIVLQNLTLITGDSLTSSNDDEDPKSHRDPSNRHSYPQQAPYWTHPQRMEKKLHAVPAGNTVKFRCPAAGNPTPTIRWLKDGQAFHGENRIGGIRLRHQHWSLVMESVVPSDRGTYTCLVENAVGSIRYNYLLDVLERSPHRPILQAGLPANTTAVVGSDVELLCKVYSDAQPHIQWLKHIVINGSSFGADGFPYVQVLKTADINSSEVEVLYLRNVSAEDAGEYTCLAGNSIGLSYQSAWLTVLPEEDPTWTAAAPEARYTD
The assay is described as follows: functional ELISA on immobilized FGFR. Background: ELISA stands for enzyme-linked immunosorbent assay.

Assay [2] concerns the target T1, FGFR4 extracellular domain, immobilized (R4-Fc). The assay is described as follows: ELISA: biotinylated ligand on immobilized FGFR extracellular domain.

No constants are given. Whether binding was seen depends on the method and setting. Some results given as binding are weak or reduced against the parent protein; the word gives no strength. Sequences can lack the tags named with a protein.

Turning to “FGF-18 (recombinant wild type, mature form without the signal peptide) (from UniProt O76093 29-207) (ligand)”, the binding result in assay [1] and in assay [2] was “binds” each time. Regarding “FGF-18^Δ31 (from UniProt O76093 32-207) (ligand)”, the binding entry in assay [1] is on record as “binds”. As for “FGF-18^Δ37 (from UniProt O76093 38-207) (ligand)”, the binding entry in assay [2] is reported as “binds”.

In the case of “FGF-18^Δ45 (from UniProt O76093 46-207) (ligand)”, the binding entry in assay [2] was “binds”. The same measure, in the same setting: under “FGF-18^Δ51 (from UniProt O76093 52-207) (ligand)” stands “binds”.
